Reference: publication PMC2776356 (2009)

Sequences of proteins named here, by UniProt entry; tags and fusion partners are left off. A change or cut given only in a name is not applied to a line headed by its entry.
UniProt Q969G9: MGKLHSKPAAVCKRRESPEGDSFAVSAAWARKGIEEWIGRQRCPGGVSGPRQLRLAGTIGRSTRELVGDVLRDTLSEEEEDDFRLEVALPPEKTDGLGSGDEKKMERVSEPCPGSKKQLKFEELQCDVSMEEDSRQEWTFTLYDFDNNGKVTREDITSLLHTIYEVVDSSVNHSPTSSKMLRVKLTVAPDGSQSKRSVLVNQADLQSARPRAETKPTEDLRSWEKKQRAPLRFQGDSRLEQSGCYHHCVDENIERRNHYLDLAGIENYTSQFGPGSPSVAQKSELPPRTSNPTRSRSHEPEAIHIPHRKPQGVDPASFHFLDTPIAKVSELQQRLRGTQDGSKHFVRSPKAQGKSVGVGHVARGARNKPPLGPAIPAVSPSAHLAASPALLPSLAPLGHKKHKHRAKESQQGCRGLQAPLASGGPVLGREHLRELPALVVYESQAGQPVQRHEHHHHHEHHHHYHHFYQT
UniProt O14641: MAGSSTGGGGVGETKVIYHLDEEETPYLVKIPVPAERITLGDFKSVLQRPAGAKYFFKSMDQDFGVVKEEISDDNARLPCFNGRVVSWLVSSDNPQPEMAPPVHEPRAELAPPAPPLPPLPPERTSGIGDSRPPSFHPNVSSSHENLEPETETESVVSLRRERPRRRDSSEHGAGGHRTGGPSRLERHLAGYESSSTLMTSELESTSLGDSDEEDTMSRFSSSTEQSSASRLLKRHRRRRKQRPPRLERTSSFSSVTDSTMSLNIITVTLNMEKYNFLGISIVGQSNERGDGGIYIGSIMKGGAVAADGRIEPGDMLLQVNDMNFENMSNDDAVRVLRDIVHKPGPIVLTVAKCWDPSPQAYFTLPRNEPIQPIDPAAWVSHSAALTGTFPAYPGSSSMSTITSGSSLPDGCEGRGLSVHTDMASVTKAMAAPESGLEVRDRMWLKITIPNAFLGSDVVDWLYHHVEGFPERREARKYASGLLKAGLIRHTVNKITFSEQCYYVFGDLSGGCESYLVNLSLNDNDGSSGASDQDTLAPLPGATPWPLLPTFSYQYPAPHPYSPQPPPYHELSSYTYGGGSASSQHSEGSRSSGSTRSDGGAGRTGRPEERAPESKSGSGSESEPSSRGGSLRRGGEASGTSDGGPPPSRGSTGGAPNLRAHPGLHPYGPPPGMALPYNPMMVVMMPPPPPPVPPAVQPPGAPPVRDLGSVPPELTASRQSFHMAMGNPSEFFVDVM

Target: Nkd1^1–286 with the 30aa motif deleted (yeast two-hybrid bait) (human) (UniProt Q969G9)
Experiment: two-hybrid; Nkd1 baits in pAS2-1, Dvl preys in pAct2, yeast reporter strain Y190; growth on triple dropout (-Leu-Trp-His) with 50 mM 3-AT against double dropout (-Leu-Trp); quantitative ONPG assay

- binding: binds
Molecule: Dvl2 (yeast two-hybrid prey) (from UniProt O14641 1-736)

- binding: binds
B1: Dvl1 (yeast two-hybrid prey) (protein, UniProt O14640 1-695)
chain: MAETKIIYHMDEEETPYLVKLPVAPERVTLADFKNVLSNRPVHAYKFFFKSMDQDFGVVKEEIFDDNAKLPCFNGRVVSWLVLAEGAHSDAGSQGTDSHTDLPPPLERTGGIGDSRPPSFHPNVASSRDGMDNETGTESMVSHRRERARRRNREEAARTNGHPRGDRRRDVGLPPDSASTALSSELESSSFVDSDEDGSTSRLSSSTEQSTSSRLIRKHKRRRRKQRLRQADRASSFSSITDSTMSLNIVTVTLNMERHHFLGISIVGQSNDRGDGGIYIGSIMKGGAVAADGRIEPGDMLLQVNDVNFENMSNDDAVRVLREIVSQTGPISLTVAKCWDPTPRSYFTVPRADPVRPIDPAAWLSHTAALTGALPRYGTSPCSSAVTRTSSSSLTSSVPGAPQLEEAPLTVKSDMSAVVRVMQLPDSGLEIRDRMWLKITIANAVIGADVVDWLYTHVEGFKERREARKYASSLLKHGFLRHTVNKITFSEQCYYVFGDLCSNLATLNLNSGSSGTSDQDTLAPLPHPAAPWPLGQGYPYQYPGPPPCFPPAYQDPGFSYGSGSTGSQQSEGSKSSGSTRSSRRAPGREKERRAAGAGGSGSESDHTAPSGVGSSWRERPAGQLSRGSSPRSQASATAPGLPPPHPTTKAYTVVGGPPGGPPVRELAAVPPELTGSRQSFQKAMGNPCEFFVDIM

These are yes or no findings as the source states them, for the method shown. A result given as binding can be weak or reduced; the word gives no strength. Each block holds one molecule with its values, some of them ahead of it.
